# Measurements as given in article PMC8384837.
# Substitutions are numbered along the chain they refer to. This is one part of the list. For part of these data: At the low end of the ranking, values are background and their order means little. For part of these data: Construct or isoform of the protein are uncertain.
# How the values were obtained:
# Conditions in all cases: yeast three-hybrid, YBZ-1, SC-Leu-His + 0.5 mM 3-AT, 4 days
# [1] = biological target: T1, PUM1 PUF domain R3-THE R4-TFR C935T + R936H + Q939E + N971T + H972F + Q975R (UniProt Q14671)
# T1 sequence: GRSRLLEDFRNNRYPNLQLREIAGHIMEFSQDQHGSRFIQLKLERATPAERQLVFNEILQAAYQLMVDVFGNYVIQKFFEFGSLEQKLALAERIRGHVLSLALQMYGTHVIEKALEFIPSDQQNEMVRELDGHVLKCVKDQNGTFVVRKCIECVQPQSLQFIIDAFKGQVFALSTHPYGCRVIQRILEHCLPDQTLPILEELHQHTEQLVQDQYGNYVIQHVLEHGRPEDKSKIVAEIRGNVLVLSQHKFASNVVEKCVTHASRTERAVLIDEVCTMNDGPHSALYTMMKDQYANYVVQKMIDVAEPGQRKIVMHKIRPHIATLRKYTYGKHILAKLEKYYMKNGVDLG
# [2] = biological target: T2, PUM1 PUF domain R3-THE R4-TFR R7-NPG C935T + R936H + Q939E + N971T + H972F + Q975R + S1079N + N1080P + E1083G (UniProt Q14671)
# T2 sequence: T1 sequence with S252N, N253P, E256G
# [3] = biological target: T3, PUM1 PUF domain R5-PHQ R6-SWD C1007P + R1008H + N1043S + Y1044W + Q1047D (UniProt Q14671)
# T3 sequence: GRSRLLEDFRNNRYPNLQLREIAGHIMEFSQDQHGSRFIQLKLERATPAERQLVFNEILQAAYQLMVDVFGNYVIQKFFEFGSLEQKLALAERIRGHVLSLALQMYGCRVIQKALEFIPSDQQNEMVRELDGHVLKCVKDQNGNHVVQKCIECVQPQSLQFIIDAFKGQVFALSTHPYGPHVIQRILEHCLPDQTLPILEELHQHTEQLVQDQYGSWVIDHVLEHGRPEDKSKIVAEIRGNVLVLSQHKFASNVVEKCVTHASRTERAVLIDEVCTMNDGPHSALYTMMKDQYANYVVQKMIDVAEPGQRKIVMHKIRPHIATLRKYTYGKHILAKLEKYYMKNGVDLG
# [4] = biological target: T4, PUM1 PUF domain R6-SWD R7-NPG N1043S + Y1044W + Q1047D + S1079N + N1080P + E1083G (Homo sapiens) (UniProt Q14671)
# T4 sequence: T3 sequence with P180C, H181R, S252N, N253P, E256G
Sequence,binding signal (log2 enrichment (interaction score)) [1],binding signal (log2 enrichment (interaction score)) [2],binding signal (log2 enrichment (interaction score)) [3],binding signal (log2 enrichment (interaction score)) [4]
GGCUAGAACUAGUGGAUCCCCCGGCGCCCGGCGGCUCGAGCCCGGGUAAGUGAAUACAGUCUGCAUGCCGCCGGGCGCCAUGCCUGCAGGUCGACUCUAGAAAACAUG,-7.03,< -2.25,-7.61,–
GGCUAGAACUAGUGGAUCCCCCGGCGCCCGGCGGCUCGAGCCCGGGUAAGGGGCUGUAGUCUGCAUGCCGCCGGGCGCCAUGCCUGCAGGUCGACUCUAGAAAACAUG,-8.65,–,< -7.72,–
GGCUAGAACUAGUGGAUCCCCCGGCGCCCGGCGGCUCGAGCCCGGGUAAGUCGAAAGAGUCUGCAUGCCGCCGGGCGCCAUGCCUGCAGGUCGACUCUAGAAAACAUG,-7.29,–,< -7.33,–
GGCUAGAACUAGUGGAUCCCCCGGCGCCCGGCGGCUCGAGCCCGGGUAAGUGUUCACAGUCUGCAUGCCGCCGGGCGCCAUGCCUGCAGGUCGACUCUAGAAAACAUG,-6.6,-2.81,-7.09,–
GGCUAGAACUAGUGGAUCCCCCGGCGCCCGGCGGCUCGAGCCCGGGUAAGGGUAAGUCGUCUGCAUGCCGCCGGGCGCCAUGCCUGCAGGUCGACUCUAGAAAACAUG,-6.48,-2.38,< -8.01,–
GGCUAGAACUAGUGGAUCCCCCGGCGCCCGGCGGCUCGAGCCCGGGUAAGUAAACGUAGUCUGCAUGCCGCCGGGCGCCAUGCCUGCAGGUCGACUCUAGAAAACAUG,-7.84,–,< -7.82,–
GGCUAGAACUAGUGGAUCCCCCGGCGCCCGGCGGCUCGAGCCCGGGUAAGUGAAAACUGUCUGCAUGCCGCCGGGCGCCAUGCCUGCAGGUCGACUCUAGAAAACAUG,-5.78,–,-7.84,–
GGCUAGAACUAGUGGAUCCCCCGGCGCCCGGCGGCUCGAGCCCGGGUAAGUGCACGAAGUCUGCAUGCCGCCGGGCGCCAUGCCUGCAGGUCGACUCUAGAAAACAUG,-7.84,–,< -7.28,–
GGCUAGAACUAGUGGAUCCCCCGGCGCCCGGCGGCUCGAGCCCGGGUAAGUGUAACAUGUCUGCAUGCCGCCGGGCGCCAUGCCUGCAGGUCGACUCUAGAAAACAUG,-6.78,–,-7.35,–
GGCUAGAACUAGUGGAUCCCCCGGCGCCCGGCGGCUCGAGCCCGGGUAAGUGAAUACUGUCUGCAUGCCGCCGGGCGCCAUGCCUGCAGGUCGACUCUAGAAAACAUG,< -6.97,–,-8.47,–
GGCUAGAACUAGUGGAUCCCCCGGCGCCCGGCGGCUCGAGCCCGGGUAAGAGUAAGUGGUCUGCAUGCCGCCGGGCGCCAUGCCUGCAGGUCGACUCUAGAAAACAUG,-6.96,–,< -7.59,–
GGCUAGAACUAGUGGAUCCCCCGGCGCCCGGCGGCUCGAGCCCGGGUAAGCGUAAGUAGUCUGCAUGCCGCCGGGCGCCAUGCCUGCAGGUCGACUCUAGAAAACAUG,-6.42,–,< -7.38,–
GGCUAGAACUAGUGGAUCCCCCGGCGCCCGGCGGCUCGAGCCCGGGUAAGUUGAUUUAGUCUGCAUGCCGCCGGGCGCCAUGCCUGCAGGUCGACUCUAGAAAACAUG,-5.71,–,-7.62,–
GGCUAGAACUAGUGGAUCCCCCGGCGCCCGGCGGCUCGAGCCCGGGUAAGAUGAACUAGUCUGCAUGCCGCCGGGCGCCAUGCCUGCAGGUCGACUCUAGAAAACAUG,-6.22,–,< -7.33,–
GGCUAGAACUAGUGGAUCCCCCGGCGCCCGGCGGCUCGAGCCCGGGUAAGUGGGCGUAGUCUGCAUGCCGCCGGGCGCCAUGCCUGCAGGUCGACUCUAGAAAACAUG,< -8.25,-2.9,-7.08,-0.08
GGCUAGAACUAGUGGAUCCCCCGGCGCCCGGCGGCUCGAGCCCGGGUAAGUCGAACUAGUCUGCAUGCCGCCGGGCGCCAUGCCUGCAGGUCGACUCUAGAAAACAUG,-6.14,–,< -8.28,–
GGCUAGAACUAGUGGAUCCCCCGGCGCCCGGCGGCUCGAGCCCGGGUAAGUGUACGCAGUCUGCAUGCCGCCGGGCGCCAUGCCUGCAGGUCGACUCUAGAAAACAUG,-2.5,–,-7.77,–
GGCUAGAACUAGUGGAUCCCCCGGCGCCCGGCGGCUCGAGCCCGGGUAAGUUGUCGUAGUCUGCAUGCCGCCGGGCGCCAUGCCUGCAGGUCGACUCUAGAAAACAUG,-7.01,–,-8.84,–
GGCUAGAACUAGUGGAUCCCCCGGCGCCCGGCGGCUCGAGCCCGGGUAAGUCUAAGGAGUCUGCAUGCCGCCGGGCGCCAUGCCUGCAGGUCGACUCUAGAAAACAUG,< -7.36,–,< -7.15,–
GGCUAGAACUAGUGGAUCCCCCGGCGCCCGGCGGCUCGAGCCCGGGUAAGUACUCAUAGUCUGCAUGCCGCCGGGCGCCAUGCCUGCAGGUCGACUCUAGAAAACAUG,-6.07,–,-7.05,–

# As a working copy, part of the list above.
Sequence,binding signal (log2 enrichment (interaction score)) [1],binding signal (log2 enrichment (interaction score)) [2],binding signal (log2 enrichment (interaction score)) [3],binding signal (log2 enrichment (interaction score)) [4]
GGCUAGAACUAGUGGAUCCCCCGGCGCCCGGCGGCUCGAGCCCGGGUAAGUGAAUACUGUCUGCAUGCCGCCGGGCGCCAUGCCUGCAGGUCGACUCUAGAAAACAUG,< -6.97,–,-8.47,–
GGCUAGAACUAGUGGAUCCCCCGGCGCCCGGCGGCUCGAGCCCGGGUAAGAGUAAGUGGUCUGCAUGCCGCCGGGCGCCAUGCCUGCAGGUCGACUCUAGAAAACAUG,-6.96,–,< -7.59,–
